Laboratory results published in publication PMC10040131.
Results are given in words; binding and its absence hold for the method and conditions named. In cells and extracts the contact can be indirect. Some binding calls cover weakened binding; strength is not graded here.

Chains of the proteins cited; added tags and fusions are not shown.
UniProt P28370: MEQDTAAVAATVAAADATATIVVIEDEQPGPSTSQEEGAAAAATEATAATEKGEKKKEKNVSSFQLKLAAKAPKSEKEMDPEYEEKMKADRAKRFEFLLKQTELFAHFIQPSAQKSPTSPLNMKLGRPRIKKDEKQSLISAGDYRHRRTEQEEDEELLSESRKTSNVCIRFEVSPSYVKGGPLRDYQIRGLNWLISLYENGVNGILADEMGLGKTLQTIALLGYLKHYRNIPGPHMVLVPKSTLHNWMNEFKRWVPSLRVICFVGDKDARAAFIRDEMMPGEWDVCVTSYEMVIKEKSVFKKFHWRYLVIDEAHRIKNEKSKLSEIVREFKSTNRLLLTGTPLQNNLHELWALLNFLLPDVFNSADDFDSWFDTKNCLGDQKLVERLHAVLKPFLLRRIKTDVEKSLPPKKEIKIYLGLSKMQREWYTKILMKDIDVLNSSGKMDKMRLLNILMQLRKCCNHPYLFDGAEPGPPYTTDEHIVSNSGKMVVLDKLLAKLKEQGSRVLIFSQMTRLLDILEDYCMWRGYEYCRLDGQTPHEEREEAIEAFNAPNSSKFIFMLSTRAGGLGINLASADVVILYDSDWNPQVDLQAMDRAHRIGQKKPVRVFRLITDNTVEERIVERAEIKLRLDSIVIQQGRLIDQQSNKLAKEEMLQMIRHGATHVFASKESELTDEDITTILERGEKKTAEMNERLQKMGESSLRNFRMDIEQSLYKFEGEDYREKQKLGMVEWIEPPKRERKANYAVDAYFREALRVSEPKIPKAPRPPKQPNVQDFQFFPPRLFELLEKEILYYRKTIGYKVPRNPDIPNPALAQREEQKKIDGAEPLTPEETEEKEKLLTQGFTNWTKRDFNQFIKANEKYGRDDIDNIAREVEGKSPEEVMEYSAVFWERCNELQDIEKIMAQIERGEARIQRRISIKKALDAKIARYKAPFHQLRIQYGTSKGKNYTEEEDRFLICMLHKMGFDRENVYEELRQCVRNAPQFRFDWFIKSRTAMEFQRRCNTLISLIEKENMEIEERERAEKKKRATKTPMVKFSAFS
UniProt Q16665: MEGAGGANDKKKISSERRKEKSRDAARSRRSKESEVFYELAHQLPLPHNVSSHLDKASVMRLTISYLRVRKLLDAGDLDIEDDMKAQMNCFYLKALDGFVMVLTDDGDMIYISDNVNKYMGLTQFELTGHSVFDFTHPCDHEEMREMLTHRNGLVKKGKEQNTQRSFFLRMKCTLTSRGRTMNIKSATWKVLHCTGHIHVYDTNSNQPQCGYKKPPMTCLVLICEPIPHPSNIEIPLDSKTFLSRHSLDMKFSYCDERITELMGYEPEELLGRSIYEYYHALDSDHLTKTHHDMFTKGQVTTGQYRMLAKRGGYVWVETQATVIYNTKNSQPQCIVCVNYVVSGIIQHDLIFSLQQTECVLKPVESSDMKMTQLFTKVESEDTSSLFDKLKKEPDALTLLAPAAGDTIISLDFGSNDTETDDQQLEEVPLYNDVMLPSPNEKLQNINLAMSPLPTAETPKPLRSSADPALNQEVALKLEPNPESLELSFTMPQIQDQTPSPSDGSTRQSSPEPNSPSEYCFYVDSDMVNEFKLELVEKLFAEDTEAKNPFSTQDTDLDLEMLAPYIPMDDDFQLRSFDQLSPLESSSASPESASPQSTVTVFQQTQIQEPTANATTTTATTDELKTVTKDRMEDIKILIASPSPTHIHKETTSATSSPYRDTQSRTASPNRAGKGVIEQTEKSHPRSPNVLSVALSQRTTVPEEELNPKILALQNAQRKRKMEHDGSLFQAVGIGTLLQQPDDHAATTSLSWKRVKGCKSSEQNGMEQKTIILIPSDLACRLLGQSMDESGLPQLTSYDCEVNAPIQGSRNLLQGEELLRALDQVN
UniProt Q99814: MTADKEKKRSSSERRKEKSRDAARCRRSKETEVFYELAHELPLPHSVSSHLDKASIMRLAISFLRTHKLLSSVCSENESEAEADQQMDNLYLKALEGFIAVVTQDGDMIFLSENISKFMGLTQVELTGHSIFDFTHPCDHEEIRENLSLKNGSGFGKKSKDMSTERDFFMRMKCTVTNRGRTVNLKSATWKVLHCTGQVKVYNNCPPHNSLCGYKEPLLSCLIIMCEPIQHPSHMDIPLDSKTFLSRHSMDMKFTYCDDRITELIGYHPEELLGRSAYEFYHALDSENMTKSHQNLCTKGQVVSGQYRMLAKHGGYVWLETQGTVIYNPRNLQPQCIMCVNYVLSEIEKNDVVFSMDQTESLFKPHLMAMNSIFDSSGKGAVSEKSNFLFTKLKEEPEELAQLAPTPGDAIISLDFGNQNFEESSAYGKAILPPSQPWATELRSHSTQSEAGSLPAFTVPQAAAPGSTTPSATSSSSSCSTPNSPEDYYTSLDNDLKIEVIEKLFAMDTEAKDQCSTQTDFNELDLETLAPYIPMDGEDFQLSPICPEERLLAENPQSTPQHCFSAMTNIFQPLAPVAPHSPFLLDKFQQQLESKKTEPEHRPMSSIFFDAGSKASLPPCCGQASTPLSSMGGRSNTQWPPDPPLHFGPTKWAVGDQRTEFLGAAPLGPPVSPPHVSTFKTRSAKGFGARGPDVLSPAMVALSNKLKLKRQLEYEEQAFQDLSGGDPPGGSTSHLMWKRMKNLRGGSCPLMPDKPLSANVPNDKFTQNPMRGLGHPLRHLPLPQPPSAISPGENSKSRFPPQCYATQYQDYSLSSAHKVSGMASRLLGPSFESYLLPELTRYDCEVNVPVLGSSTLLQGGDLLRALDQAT
UniProt Q09028: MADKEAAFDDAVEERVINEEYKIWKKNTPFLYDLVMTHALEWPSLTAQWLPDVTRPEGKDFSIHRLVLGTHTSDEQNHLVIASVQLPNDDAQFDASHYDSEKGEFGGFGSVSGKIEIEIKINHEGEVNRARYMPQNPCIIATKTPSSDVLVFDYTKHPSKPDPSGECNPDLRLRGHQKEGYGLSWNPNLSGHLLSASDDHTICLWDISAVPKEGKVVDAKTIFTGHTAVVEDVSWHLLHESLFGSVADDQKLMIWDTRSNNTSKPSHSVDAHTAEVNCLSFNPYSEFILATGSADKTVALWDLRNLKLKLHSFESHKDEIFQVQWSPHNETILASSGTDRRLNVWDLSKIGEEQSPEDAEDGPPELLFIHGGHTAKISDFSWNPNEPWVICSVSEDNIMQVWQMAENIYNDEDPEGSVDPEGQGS

Key:
[1] = target: T1, PHF6 (human (endogenous in MCF-7)) (UniProt Q8IWS0); test: co-IP; endogenous PHF6 and NURF subunits; HEPES lysis buffer (20 mM HEPES, 150 mM NaCl, 1 mM EDTA, 0.5% NP-40, 0.25% deoxycholate), protein A/G agarose beads and antibody at 4 °C overnight; western blot; cell line and precipitating antibody not stated
T1 sequence: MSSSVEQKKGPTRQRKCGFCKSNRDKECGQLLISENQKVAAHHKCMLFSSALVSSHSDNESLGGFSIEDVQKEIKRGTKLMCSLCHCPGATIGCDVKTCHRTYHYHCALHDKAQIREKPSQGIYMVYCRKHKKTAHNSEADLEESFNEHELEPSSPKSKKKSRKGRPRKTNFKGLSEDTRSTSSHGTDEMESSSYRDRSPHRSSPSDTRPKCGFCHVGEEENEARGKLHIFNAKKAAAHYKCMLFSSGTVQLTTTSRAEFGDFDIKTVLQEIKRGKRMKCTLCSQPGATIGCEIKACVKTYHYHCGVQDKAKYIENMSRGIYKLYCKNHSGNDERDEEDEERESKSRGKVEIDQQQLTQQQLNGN

[2] = target: T1, PHF6 (human (endogenous in MCF-7)); test: co-IP; MCF-7 cells exposed to 1% O2 for 12 h; whole cell lysates precipitated with anti-PHF6 antibody or control IgG; endogenous proteins; western blot

binding [1]	binding [2]	Substance
binds		SNF2L (from UniProt P28370 1-1042)
	binds	HIF-1α (from UniProt Q16665 1-826)
	binds	HIF-2α (from UniProt Q99814 1-870)
binds		RBBP4 (from UniProt Q09028 1-425)
